# These are yes or no findings as the source states them, for the method shown. In cells and extracts the contact can be indirect. Some entries that bind do so weakly or less than the wild type.
# The chains behind the UniProt entries cited, without tags or fusion partners.
# UniProt Q05086: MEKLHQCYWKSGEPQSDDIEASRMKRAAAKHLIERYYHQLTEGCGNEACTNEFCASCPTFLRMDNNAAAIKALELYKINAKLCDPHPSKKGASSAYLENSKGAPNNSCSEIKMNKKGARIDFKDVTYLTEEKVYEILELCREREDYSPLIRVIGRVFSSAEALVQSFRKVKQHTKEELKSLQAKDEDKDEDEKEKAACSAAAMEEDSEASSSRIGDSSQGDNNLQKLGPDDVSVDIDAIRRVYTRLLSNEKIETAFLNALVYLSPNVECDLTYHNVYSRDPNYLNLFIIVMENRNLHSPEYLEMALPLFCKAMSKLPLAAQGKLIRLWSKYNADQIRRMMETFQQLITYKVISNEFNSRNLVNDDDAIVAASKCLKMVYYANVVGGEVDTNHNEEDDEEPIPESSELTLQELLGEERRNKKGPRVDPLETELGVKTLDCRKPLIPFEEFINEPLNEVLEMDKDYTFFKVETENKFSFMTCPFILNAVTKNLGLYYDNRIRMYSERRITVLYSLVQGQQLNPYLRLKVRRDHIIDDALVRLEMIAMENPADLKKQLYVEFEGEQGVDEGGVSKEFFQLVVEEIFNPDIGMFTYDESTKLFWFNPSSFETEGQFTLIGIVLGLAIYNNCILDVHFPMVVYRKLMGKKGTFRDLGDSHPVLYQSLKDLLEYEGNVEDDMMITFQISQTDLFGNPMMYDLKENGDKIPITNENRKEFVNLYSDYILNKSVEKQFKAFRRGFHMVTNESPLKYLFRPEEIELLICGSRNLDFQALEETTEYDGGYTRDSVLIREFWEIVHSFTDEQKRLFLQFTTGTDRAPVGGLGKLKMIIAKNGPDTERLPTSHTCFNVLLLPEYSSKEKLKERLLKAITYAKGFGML
# UniProt Q7L5N1: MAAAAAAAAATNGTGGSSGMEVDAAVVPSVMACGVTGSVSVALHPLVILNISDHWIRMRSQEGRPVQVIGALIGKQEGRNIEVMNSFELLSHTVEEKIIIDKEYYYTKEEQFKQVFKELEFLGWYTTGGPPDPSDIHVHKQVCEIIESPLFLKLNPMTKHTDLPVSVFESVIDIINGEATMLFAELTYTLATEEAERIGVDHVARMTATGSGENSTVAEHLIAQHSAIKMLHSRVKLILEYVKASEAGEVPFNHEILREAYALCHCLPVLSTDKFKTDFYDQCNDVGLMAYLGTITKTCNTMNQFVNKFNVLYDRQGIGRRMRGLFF
# Biological target: E6-associated protein (E6AP/UBE3A), endogenous (human (endogenous in HeLa)) (UniProt Q05086)
# Assay: co-IP; HeLa cell lysates immunoprecipitated with anti-E6AP antibody or mouse IgG, immunoblotted for CSN6; both proteins endogenous; 1 mg protein, overnight, Protein A or G beads
substance,measurement,value
"COP9 signalosome subunit 6 (CSN6), endogenous (from UniProt Q7L5N1 1-327)",binding,binds

# Reference: article PMC4695042
